Results published in US10117943B2, “Synthetic antibody mimetic compounds (SYAMS) targeting cancer, especially prostate cancer” (YALE UNIVERSITY, priority 2013, dated 2018).
At least one compound was matched to its structure with a doubt left.

The chains behind the UniProt entries cited, without tags or fusion partners. Residues count along the entry.
UniProt Q04609, 44-750 limits assumed: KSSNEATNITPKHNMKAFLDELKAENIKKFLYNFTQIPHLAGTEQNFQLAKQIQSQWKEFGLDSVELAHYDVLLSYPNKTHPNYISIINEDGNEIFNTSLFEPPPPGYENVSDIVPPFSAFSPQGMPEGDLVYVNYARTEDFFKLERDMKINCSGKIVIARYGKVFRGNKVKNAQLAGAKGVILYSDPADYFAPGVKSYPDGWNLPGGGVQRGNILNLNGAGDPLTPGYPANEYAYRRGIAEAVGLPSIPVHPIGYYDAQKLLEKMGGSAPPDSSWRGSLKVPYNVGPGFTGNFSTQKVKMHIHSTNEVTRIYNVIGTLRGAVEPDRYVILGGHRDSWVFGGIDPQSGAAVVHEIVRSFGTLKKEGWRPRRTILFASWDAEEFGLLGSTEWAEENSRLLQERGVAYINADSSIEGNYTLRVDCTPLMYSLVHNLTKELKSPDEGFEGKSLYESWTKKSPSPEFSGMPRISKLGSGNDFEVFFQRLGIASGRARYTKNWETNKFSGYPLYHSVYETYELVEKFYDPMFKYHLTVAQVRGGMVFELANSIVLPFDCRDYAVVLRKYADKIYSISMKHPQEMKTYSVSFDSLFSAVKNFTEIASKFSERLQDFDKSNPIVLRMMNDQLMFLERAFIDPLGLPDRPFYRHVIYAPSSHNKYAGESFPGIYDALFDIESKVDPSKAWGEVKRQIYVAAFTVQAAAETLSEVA
UniProt P12314, 16-374: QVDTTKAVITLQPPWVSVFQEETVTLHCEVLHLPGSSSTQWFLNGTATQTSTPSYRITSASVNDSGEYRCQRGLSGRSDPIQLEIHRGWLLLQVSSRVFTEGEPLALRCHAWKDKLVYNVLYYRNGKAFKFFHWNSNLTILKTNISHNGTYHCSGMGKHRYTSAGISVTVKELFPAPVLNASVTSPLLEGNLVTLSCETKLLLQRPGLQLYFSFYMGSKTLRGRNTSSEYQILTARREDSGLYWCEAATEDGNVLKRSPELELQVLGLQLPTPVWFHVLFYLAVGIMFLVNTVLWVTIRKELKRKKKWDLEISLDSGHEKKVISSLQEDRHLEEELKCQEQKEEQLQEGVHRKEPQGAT

Columns and labels:
PSMA = target: T1, PSMA (Homo sapiens, UniProt Q04609); assay: Bead binding assay for PSMA binding constant; conditions: PSMA-coated 6 μm beads, streptavidin-Alexa detection, flow cytometry
T1 construct: gift of Dr. Jan Konvalinka and Dr. Ceril Barinka

FcγRI = target: T2, FcγRI (Homo sapiens, UniProt P12314); assay: IIA1.6 FcγRI expressing cell binding assay; conditions: IIA1.6 cells expressing FcγRI, flow cytometry; read-out: EC50 FcyRI Binding
T2 construct: host or cells: IIA1.6 cells
Description: Peptide dilutions have been prepared in DMSO usually starting form 1 mM stock solution with further 10 fold dilution. Cells IIa1.6 stably transfected with FcγRIA/γ-chain and non-transfected IIa1.6 cells used as isogenic negative control, were grown to approximately 1.5-2×10^6 cells/mL density, spun down and reconstituted in RPMI 1640 medium without phenol red, supplemented with 10% FBS and Pen/Strep mixture to cell density 1×10^6 cells/mL. A 100 uL aliquot of cells was further transferred into an eppendorf tube and left to cool on ice for 5-10 minutes. Following this 1 uL of peptide dissolved in DMSO was added to the cells, bringing final concentration of DMSO to 1%. After 1 hour incubation on ice with a peptide 5 uL of Streptavidin-Alexafluor 488 (2 mg/mL) was added to the cells and left incubating on ice for 30-60 minutes. After the incubation cells were washed two times with 1 mL of cold RPMI1640 medium without phenol red, supplemented with 10% FBS and Pen/Strep and finally washed once in 1 mL TBS Buffer (150 mM NaCl and 25 mM Tris, pH 7.4). Cells were resuspended in residual TBS buffer (usually ˜100 uL) and analyzed via flow cytometry with detection in the FL1 channel.

CC(=O)N[C@H](C(=O)N[C@@H](CC(N)=O)C(=O)N[C@@H](CO)C(=O)N[C@H]1CSSC[C@@H](C(=O)NCC(=O)N[C@@H](CC(=O)O)C(=O)N[C@@H](CC(=O)O)C(=O)N[C@@H](CCCCNC(=O)CCCC(=O)NCCOCCOCCOCC(=O)NCCCC[C@H](NC(=O)COCCOCCOCCNC(=O)CCCC(=O)NCCCC[C@H](NC(=O)[C@H](CC(=O)O)NC(=O)[C@H](CC(=O)O)NC(=O)CNC(=O)[C@@H]2CSSC[C@H](NC(=O)[C@H](CO)NC(=O)[C@H](CC(N)=O)NC(=O)[C@@H](NC(C)=O)C(C)C)C(=O)N[C@@H](CC(C)C)C(=O)N[C@@H](CC(C)C)C(=O)N[C@@H](CC(C)C)C(=O)N3CCC[C@H]3C(=O)N[C@@H](CC(N)=O)C(=O)N[C@@H](CC(C)C)C(=O)N[C@@H](CC(C)C)C(=O)NCC(=O)N2)C(=O)N[C@@H](CCCCNC(=O)CCCC[C@@H]2SC[C@@H]3NC(=O)N[C@@H]32)C(N)=O)C(=O)NCc2cn(-c3cc(C(=O)NCCCCCC(=O)NCCCCCC(=O)NCCCCCC(=O)NCCCCCC(=O)NCCCCCC(=O)NCCCCCC(=O)NCc4cn(CCCC[C@H](NC(=O)N[C@@H](CCC(=O)O)C(=O)O)C(=O)O)nn4)cc(C(=O)NCCCCCC(=O)NCCCCCC(=O)NCCCCCC(=O)NCCCCCC(=O)NCCCCCC(=O)NCCCCCC(=O)NCc4cn(CCCC[C@H](NC(=O)N[C@@H](CCC(=O)O)C(=O)O)C(=O)O)nn4)c3)nn2)C(=O)N[C@@H](CCCCNC(=O)CCCC[C@@H]2SC[C@@H]3NC(=O)N[C@@H]32)C(N)=O)NC(=O)CNC(=O)[C@H](CC(C)C)NC(=O)[C@H](CC(C)C)NC(=O)[C@H](CC(N)=O)NC(=O)[C@@H]2CCCN2C(=O)[C@H](CC(C)C)NC(=O)[C@H](CC(C)C)NC(=O)[C@H](CC(C)C)NC1=O)C(C)C [SyAM-P3]
EC50 (PSMA): 23.2 nM
EC50 (FcγRI): 57.7 nM
